Measured values reported in PubChem BioAssay AID248 (DTP/NCI, 2004).
The list does not hold the whole screen: it covers a few groups of compounds. Not every dose and run of a compound is shown. T/C is the treated group as % of the vehicle group. Some doses have a count of surviving animals in place of a T/C: the source holds a T/C of zero for them, seemingly a mark for toxic or unscored doses. Some doses without a T/C left all or most animals alive at the check, yet need not have been tolerated: survival well below the control is almost never listed, so the zero probably covers shortened survival too. Counts of survivors are from the toxicity check (mostly the fifth day) where no day follows; animals may have died later. Schedules are NCI's codes, taken here to give the interval after Q, in days (D) or hours (H), and the number of doses after X. Some schedule codes hold Z or #, which are not explained here. For survival time, the PubChem record calls one and a half times the control and up active, and a quarter to a half above the control has no call in these data; cut-offs in other NCI protocols can differ. Some entries hold several experiments; the values are given in rising order. Some entries show no survivor count and are marked so; the dose need not have been tolerated. Some T/C values are followed by the survivors on the day toxicity was checked, most often the fifth; without a count or a note in brackets, all were alive then.

Tested on: L1210 leukemia ip in BDF1 mice, survival T/C
Assay: NCI In Vivo Anticancer Drug Screen. Data for tumor model L1210 Leukemia (intraperitoneal) in B6D2F1 (BDF1) mice
Details: T/C endpoint: mean survival time, higher T/C = longer survival
[1] = dose: 100.0 mg/kg/injection, schedule: Q01DX001 (ip), vehicle: saline
[2] = dose: 200.0 mg/kg/injection, schedule: Q01DX001 (ip), vehicle: saline
[3] = dose: 400.0 mg/kg/injection, schedule: Q01DX001 (ip), vehicle: saline
[4] = dose: 100.0 mg/kg/injection, schedule: Q01DX001 (ip), vehicle: saline with Tween-80
[5] = dose: 100.0 mg/kg/injection, schedule: Q01DX001 (ip), vehicle: Klucel (hydroxypropylcellulose) (HPC)
[6] = dose: 200.0 mg/kg/injection, schedule: Q01DX001 (ip), vehicle: Klucel (hydroxypropylcellulose) (HPC)
[7] = dose: 400.0 mg/kg/injection, schedule: Q01DX001 (ip), vehicle: Klucel (hydroxypropylcellulose) (HPC)
[8] = dose: 100.0 mg/kg/injection, schedule: Q04DX003 (ip), vehicle: Klucel (hydroxypropylcellulose) (HPC)
[9] = dose: 200.0 mg/kg/injection, schedule: Q04DX003 (ip), vehicle: Klucel (hydroxypropylcellulose) (HPC)

COc1ccc(NC(=O)N(CCCl)CCCl)cc1
T/C (dose: 1.0 mg/kg/injection, schedule: Q01DX009 (ip), vehicle: saline): 98 % of control
T/C (dose: 2.5 mg/kg/injection, schedule: Q01DX009 (ip), vehicle: saline): 101 % of control
T/C (dose: 5.0 mg/kg/injection, schedule: Q01DX009 (ip), vehicle: saline): 100 % of control
T/C (dose: 10.0 mg/kg/injection, schedule: Q01DX009 (ip), vehicle: saline): 103 % of control
T/C (dose: 21.0 mg/kg/injection, schedule: Q01DX009 (ip), vehicle: saline): 147 % of control
T/C (dose: 36.0 mg/kg/injection, schedule: Q01DX009 (ip), vehicle: saline): 153 % of control
T/C (dose: 50.0 mg/kg/injection, schedule: Q01DX001 (ip), vehicle: saline): 102 and 125 % of control
T/C (dose: 66.0 mg/kg/injection, schedule: Q01DX009 (ip), vehicle: saline): 131 % of control
T/C [1]: 111 and 138 % of control
T/C (dose: 100.0 mg/kg/injection, schedule: Q01DX009 (ip), vehicle: saline): 104 % of control [5 of 6 alive]
survivor count (dose: 150.0 mg/kg/injection, schedule: Q01DX009 (ip), vehicle: saline): 5 of 6
T/C [2]: 127 and 138 % of control
T/C [3]: 152 % of control [5 of 6 alive]
survivor count [3]: 0 of 4

O=[N+]([O-])c1ccc(N/N=C\c2ccc(/C=N/Nc3ccc([N+](=O)[O-])cc3[N+](=O)[O-])cc2)c([N+](=O)[O-])c1
T/C (dose: 6.25 mg/kg/injection, schedule: Q01DX001 (ip), vehicle: saline with Tween-80): 98 % of control
T/C (dose: 12.5 mg/kg/injection, schedule: Q01DX001 (ip), vehicle: saline with Tween-80): 98 % of control
T/C (dose: 25.0 mg/kg/injection, schedule: Q01DX001 (ip), vehicle: saline with Tween-80): 91 % of control
survivor count (dose: 50.0 mg/kg/injection, schedule: Q01DX001 (ip), vehicle: saline with Tween-80): 3 of 3
T/C [4]: 90 % of control
survivor count [4]: 3 of 3
survivor count (dose: 200.0 mg/kg/injection, schedule: Q01DX001 (ip), vehicle: saline with Tween-80): 3 of 3
T/C (dose: 400.0 mg/kg/injection, schedule: Q01DX001 (ip), vehicle: saline with Tween-80): 90 % of control

COP(=O)(N(CCCl)CCCl)N1CC1 (stereo unspecified)
T/C (dose: 4.0 mg/kg/injection, schedule: Q01DX Z (ip), vehicle: saline): 111 % of control
T/C (dose: 8.0 mg/kg/injection, schedule: Q01DX Z (ip), vehicle: saline): 144 % of control
T/C (dose: 16.0 mg/kg/injection, schedule: Q01DX Z (ip), vehicle: saline): 114 % of control
survivor count (dose: 32.0 mg/kg/injection, schedule: Q01DX Z (ip), vehicle: saline): 6 of 6
survivor count (dose: 62.5 mg/kg/injection, schedule: Q01DX010 (ip), vehicle: saline): 2 of 6
survivor count (dose: 64.0 mg/kg/injection, schedule: Q01DX Z (ip), vehicle: saline): 2 of 6
survivor count (dose: 125.0 mg/kg/injection, schedule: Q01DX010 (ip), vehicle: saline): 1 of 6
survivor count (dose: 250.0 mg/kg/injection, schedule: Q01DX010 (ip), vehicle: saline): 0 of 6

CN1P(Cl)(Cl)(Cl)N(C)P1(Cl)(Cl)Cl
T/C (dose: 100.0 mg/kg/injection, schedule: Q04DX002 (ip), vehicle: saline with Tween-80): 93 % of control
T/C (dose: 200.0 mg/kg/injection, schedule: Q04DX002 (ip), vehicle: saline with Tween-80): 100 % of control
T/C (dose: 400.0 mg/kg/injection, schedule: Q04DX002 (ip), vehicle: saline with Tween-80): 100 % of control

O=NN1CCN/C1=N\[N+](=O)[O-]
T/C (dose: 20.0 mg/kg/injection, schedule: Q01DX Z (ip), vehicle: methylcellulose (MC)): 112 % of control
T/C (dose: 40.0 mg/kg/injection, schedule: Q01DX Z (ip), vehicle: methylcellulose (MC)): 123 % of control
T/C (dose: 80.0 mg/kg/injection, schedule: Q01DX Z (ip), vehicle: methylcellulose (MC)): 135 % of control
T/C [5]: 103 % of control
T/C (dose: 160.0 mg/kg/injection, schedule: Q01DX Z (ip), vehicle: methylcellulose (MC)): 107 % of control [4 of 6 alive]
T/C [6]: 114 % of control
survivor count (dose: 320.0 mg/kg/injection, schedule: Q01DX Z (ip), vehicle: methylcellulose (MC)): 0 of 6
T/C [7]: 113 % of control

CP(C)(N)(Cl)c1ccccc1
survivor count [1]: 1 of 6
survivor count [2]: 0 of 6
survivor count [3]: 0 of 6

Cc1cc(Cl)nc(NC(=O)NP(=O)(Nc2ccccc2)Nc2ccccc2)n1
T/C (dose: 50.0 mg/kg/injection, schedule: Q01DX001 (ip), vehicle: alcohol): 114 % of control
T/C (dose: 100.0 mg/kg/injection, schedule: Q01DX001 (ip), vehicle: alcohol): 98 % of control
T/C (dose: 200.0 mg/kg/injection, schedule: Q01DX001 (ip), vehicle: alcohol): 102 % of control
T/C (dose: 400.0 mg/kg/injection, schedule: Q01DX001 (ip), vehicle: alcohol): 108 % of control

CP(=O)(Oc1ccc([N+](=O)[O-])cc1)Oc1ccc([N+](=O)[O-])cc1
T/C (dose: 25.0 mg/kg/injection, schedule: Q01DX009 (ip), vehicle: Klucel (hydroxypropylcellulose) (HPC)): 96 % of control [survivor count not shown]
T/C (dose: 50.0 mg/kg/injection, schedule: Q01DX009 (ip), vehicle: Klucel (hydroxypropylcellulose) (HPC)): 102 % of control [survivor count not shown]
T/C (dose: 50.0 mg/kg/injection, schedule: Q04DX003 (ip), vehicle: Klucel (hydroxypropylcellulose) (HPC)): 103 % of control [survivor count not shown]
T/C [8]: 92 [survivor count not shown] and 96 % of control [survivor count not shown]
T/C [9]: 95 [survivor count not shown] and 100 % of control [survivor count not shown]

N=C(N[N+](=O)[O-])N(CCN1CCN=C1N[N+](=O)[O-])N=O
T/C (dose: 15.0 mg/kg/injection, schedule: Q01DX Z (ip), vehicle: methylcellulose (MC)): 110 % of control
T/C (dose: 31.0 mg/kg/injection, schedule: Q01DX Z (ip), vehicle: methylcellulose (MC)): 111 % of control
T/C (dose: 62.0 mg/kg/injection, schedule: Q01DX Z (ip), vehicle: methylcellulose (MC)): 114 % of control
T/C [8]: 101 % of control
T/C (dose: 125.0 mg/kg/injection, schedule: Q01DX Z (ip), vehicle: methylcellulose (MC)): 119 % of control [4 of 6 alive]
T/C [9]: 94 % of control
survivor count (dose: 250.0 mg/kg/injection, schedule: Q01DX Z (ip), vehicle: methylcellulose (MC)): 0 of 6
T/C (dose: 400.0 mg/kg/injection, schedule: Q04DX003 (ip), vehicle: Klucel (hydroxypropylcellulose) (HPC)): 99 % of control [5 of 6 alive]
survivor count (dose: 450.0 mg/kg/injection, schedule: Q01DX Z (ip), vehicle: methylcellulose (MC)): 0 of 6

CCN(CC)CCOC(=O)C(O)(c1ccccc1)c1c(C)ccc(C)c1C (stereo unspecified)
T/C (dose: 75.0 mg/kg/injection, schedule: Q01DX001 (ip), vehicle: saline): 102 % of control

CCOP(NN(C)C)OCC
T/C [5]: 96 % of control
T/C [6]: 107 % of control
T/C [7]: 103 % of control
